{"source": "PubChem BioAssay AID1259254, NCATS, 2017", "test": "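Finding genes that stop cells copying their DNA twice in one cycle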 (primary screen)", "system": "human HCT116 colorectal cancer cells", "reagent": "single siRNA against human genes", "time to read-out": "3 days", "measured": "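Nuclei stained with Hoechst and imaged; cell-cycle phase assigned by DNA content; G2 share scaled per plate, non-targeting siRNA 0%, GMNN siRNA 100%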", "scale": "G2 robust z-score and G2 cells, % of GMNN control: higher = more G2 cells, more excess DNA replication", "active means": "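Active siRNAs have a G2 robust z of 5 or more median absolute deviations over the median, which in these data means about 38% or higher of GMNN control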", "note": "This is a random part of about 59,000 reagents. Of all reagents, about 1,550 (2.6%) were called active. 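G2 share is only a proxy for re-replication; each gene was hit by three separate siRNAs, and active genes were retested.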 Reagents against one gene are numbered here. Not all columns of the deposit are shown. Reagent sequences are not shown. Not given: the amount of reagent."}
{"gene": "GARIN4", "siRNA no.": 1, "G2 robust z-score": 0.429, "G2 cells, % of GMNN control": 5.98, "Call": "inactive"}
{"gene": "GARIN4", "siRNA no.": 2, "G2 robust z-score": 1.21, "G2 cells, % of GMNN control": 11.5, "Call": "inactive"}
{"gene": "GARIN4", "siRNA no.": 3, "G2 robust z-score": 0.41, "G2 cells, % of GMNN control": 5.85, "Call": "inactive"}
{"gene": "MGAT4EP", "siRNA no.": 1, "G2 robust z-score": -0.594, "G2 cells, % of GMNN control": -1.21, "Call": "inactive"}
{"gene": "MGAT4EP", "siRNA no.": 2, "G2 robust z-score": 1.24, "G2 cells, % of GMNN control": 11.7, "Call": "inactive"}
{"gene": "MGAT4EP", "siRNA no.": 3, "G2 robust z-score": 0.787, "G2 cells, % of GMNN control": 8.5, "Call": "inactive"}
{"gene": "KANK3", "siRNA no.": 1, "G2 robust z-score": 1.83, "G2 cells, % of GMNN control": 15.9, "Call": "inactive"}
{"gene": "KANK3", "siRNA no.": 2, "G2 robust z-score": -0.52, "G2 cells, % of GMNN control": -0.693, "Call": "inactive"}
{"gene": "KANK3", "siRNA no.": 3, "G2 robust z-score": 0.0814, "G2 cells, % of GMNN control": 3.54, "Call": "inactive"}
{"gene": "STK32B", "siRNA no.": 1, "G2 robust z-score": -1.17, "G2 cells, % of GMNN control": -5.25, "Call": "inactive"}
{"gene": "STK32B", "siRNA no.": 2, "G2 robust z-score": 0.952, "G2 cells, % of GMNN control": 9.67, "Call": "inactive"}
{"gene": "STK32B", "siRNA no.": 3, "G2 robust z-score": -0.382, "G2 cells, % of GMNN control": 0.28, "Call": "inactive"}
{"gene": "ACTN1", "siRNA no.": 1, "G2 robust z-score": 0.00769, "G2 cells, % of GMNN control": 3.02, "Call": "inactive"}
{"gene": "ACTN1", "siRNA no.": 2, "G2 robust z-score": -0.307, "G2 cells, % of GMNN control": 0.81, "Call": "inactive"}
{"gene": "ACTN1", "siRNA no.": 3, "G2 robust z-score": 0.971, "G2 cells, % of GMNN control": 9.8, "Call": "inactive"}
{"gene": "PGR", "siRNA no.": 1, "G2 robust z-score": -1.16, "G2 cells, % of GMNN control": -5.21, "Call": "inactive"}
{"gene": "PGR", "siRNA no.": 2, "G2 robust z-score": 0.567, "G2 cells, % of GMNN control": 6.96, "Call": "inactive"}
{"gene": "PGR", "siRNA no.": 3, "G2 robust z-score": 1.23, "G2 cells, % of GMNN control": 11.6, "Call": "inactive"}
{"gene": "PEAK1", "siRNA no.": 1, "G2 robust z-score": -0.214, "G2 cells, % of GMNN control": 1.46, "Call": "inactive"}
{"gene": "PEAK1", "siRNA no.": 2, "G2 robust z-score": -0.0926, "G2 cells, % of GMNN control": 2.32, "Call": "inactive"}
{"gene": "PEAK1", "siRNA no.": 3, "G2 robust z-score": 1.4, "G2 cells, % of GMNN control": 12.8, "Call": "inactive"}
{"gene": "ABCD2", "siRNA no.": 1, "G2 robust z-score": -0.439, "G2 cells, % of GMNN control": -0.12, "Call": "inactive"}
{"gene": "ABCD2", "siRNA no.": 2, "G2 robust z-score": -0.517, "G2 cells, % of GMNN control": -0.669, "Call": "inactive"}
{"gene": "ABCD2", "siRNA no.": 3, "G2 robust z-score": 0.913, "G2 cells, % of GMNN control": 9.39, "Call": "inactive"}

3 of these entries, set out differently.
gene,siRNA no.,G2 robust z-score,"G2 cells, % of GMNN control",Call
GARIN4,3,0.41,5.85,inactive
MGAT4EP,1,-0.594,-1.21,inactive
MGAT4EP,2,1.24,11.7,inactive
